Some of these results come from one statement about several compounds together.
Tested on: BT-474 breast cancer cells
Assay: BT-474 breast tumor xenografts, domain deleted huB3F6-DM4
Format: in vivo, athymic nude mice
Conditions: Taxol (FIG. 16)

CC(=O)O[C@H]1C(=O)[C@@]2(C)[C@H]([C@H](OC(=O)c3ccccc3)[C@]3(O)C[C@H](OC(=O)[C@H](O)[C@@H](NC(=O)c4ccccc4)c4ccccc4)C(C)=C1C3(C)C)[C@]1(OC(C)=O)CO[C@@H]1C[C@@H]2O [Taxol, paclitaxel]
reduction of tumor weight (test tumor weight/vehicle control): ≥ 50%
